From the supplement of paper PMC10849652
Some of the results follow.

Sequences of proteins named here, by UniProt entry; tags and fusion partners are left off. A change or cut given only in a name is not applied to a line headed by its entry.
UniProt P57088: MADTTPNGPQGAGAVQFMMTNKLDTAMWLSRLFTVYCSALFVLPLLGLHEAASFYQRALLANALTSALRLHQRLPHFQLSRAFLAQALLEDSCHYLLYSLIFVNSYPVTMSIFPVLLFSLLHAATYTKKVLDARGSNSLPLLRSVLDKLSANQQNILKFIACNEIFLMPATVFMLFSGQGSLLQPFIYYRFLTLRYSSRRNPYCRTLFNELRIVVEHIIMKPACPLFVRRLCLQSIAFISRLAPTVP
UniProt Q9H061: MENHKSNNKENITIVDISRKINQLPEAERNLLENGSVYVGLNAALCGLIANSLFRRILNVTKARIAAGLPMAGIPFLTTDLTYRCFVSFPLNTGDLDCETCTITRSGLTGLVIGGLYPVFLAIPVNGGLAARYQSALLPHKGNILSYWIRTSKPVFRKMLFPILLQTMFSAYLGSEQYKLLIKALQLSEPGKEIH
UniProt O14763, whole entry, looked up: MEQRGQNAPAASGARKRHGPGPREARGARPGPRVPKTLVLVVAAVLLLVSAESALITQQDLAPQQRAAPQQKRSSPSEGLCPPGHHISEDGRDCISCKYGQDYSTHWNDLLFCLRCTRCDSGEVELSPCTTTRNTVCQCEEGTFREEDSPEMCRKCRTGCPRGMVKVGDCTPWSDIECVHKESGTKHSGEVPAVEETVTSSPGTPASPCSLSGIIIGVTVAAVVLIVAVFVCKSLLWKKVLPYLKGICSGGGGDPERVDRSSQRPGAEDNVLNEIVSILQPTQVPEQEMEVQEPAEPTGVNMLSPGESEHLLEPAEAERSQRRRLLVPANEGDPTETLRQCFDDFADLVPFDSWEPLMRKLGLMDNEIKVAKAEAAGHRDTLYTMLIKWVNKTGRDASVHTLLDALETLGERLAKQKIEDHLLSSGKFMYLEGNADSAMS
UniProt Q9H3N1: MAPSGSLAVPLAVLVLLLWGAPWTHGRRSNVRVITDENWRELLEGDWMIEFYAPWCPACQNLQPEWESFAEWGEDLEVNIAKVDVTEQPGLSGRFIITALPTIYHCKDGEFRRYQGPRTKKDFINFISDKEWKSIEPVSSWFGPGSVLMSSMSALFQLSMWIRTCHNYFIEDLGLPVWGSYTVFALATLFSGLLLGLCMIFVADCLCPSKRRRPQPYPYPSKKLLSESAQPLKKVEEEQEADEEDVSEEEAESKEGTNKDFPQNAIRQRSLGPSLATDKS
UniProt P63313: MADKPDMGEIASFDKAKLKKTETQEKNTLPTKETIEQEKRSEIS
UniProt Q9Y490: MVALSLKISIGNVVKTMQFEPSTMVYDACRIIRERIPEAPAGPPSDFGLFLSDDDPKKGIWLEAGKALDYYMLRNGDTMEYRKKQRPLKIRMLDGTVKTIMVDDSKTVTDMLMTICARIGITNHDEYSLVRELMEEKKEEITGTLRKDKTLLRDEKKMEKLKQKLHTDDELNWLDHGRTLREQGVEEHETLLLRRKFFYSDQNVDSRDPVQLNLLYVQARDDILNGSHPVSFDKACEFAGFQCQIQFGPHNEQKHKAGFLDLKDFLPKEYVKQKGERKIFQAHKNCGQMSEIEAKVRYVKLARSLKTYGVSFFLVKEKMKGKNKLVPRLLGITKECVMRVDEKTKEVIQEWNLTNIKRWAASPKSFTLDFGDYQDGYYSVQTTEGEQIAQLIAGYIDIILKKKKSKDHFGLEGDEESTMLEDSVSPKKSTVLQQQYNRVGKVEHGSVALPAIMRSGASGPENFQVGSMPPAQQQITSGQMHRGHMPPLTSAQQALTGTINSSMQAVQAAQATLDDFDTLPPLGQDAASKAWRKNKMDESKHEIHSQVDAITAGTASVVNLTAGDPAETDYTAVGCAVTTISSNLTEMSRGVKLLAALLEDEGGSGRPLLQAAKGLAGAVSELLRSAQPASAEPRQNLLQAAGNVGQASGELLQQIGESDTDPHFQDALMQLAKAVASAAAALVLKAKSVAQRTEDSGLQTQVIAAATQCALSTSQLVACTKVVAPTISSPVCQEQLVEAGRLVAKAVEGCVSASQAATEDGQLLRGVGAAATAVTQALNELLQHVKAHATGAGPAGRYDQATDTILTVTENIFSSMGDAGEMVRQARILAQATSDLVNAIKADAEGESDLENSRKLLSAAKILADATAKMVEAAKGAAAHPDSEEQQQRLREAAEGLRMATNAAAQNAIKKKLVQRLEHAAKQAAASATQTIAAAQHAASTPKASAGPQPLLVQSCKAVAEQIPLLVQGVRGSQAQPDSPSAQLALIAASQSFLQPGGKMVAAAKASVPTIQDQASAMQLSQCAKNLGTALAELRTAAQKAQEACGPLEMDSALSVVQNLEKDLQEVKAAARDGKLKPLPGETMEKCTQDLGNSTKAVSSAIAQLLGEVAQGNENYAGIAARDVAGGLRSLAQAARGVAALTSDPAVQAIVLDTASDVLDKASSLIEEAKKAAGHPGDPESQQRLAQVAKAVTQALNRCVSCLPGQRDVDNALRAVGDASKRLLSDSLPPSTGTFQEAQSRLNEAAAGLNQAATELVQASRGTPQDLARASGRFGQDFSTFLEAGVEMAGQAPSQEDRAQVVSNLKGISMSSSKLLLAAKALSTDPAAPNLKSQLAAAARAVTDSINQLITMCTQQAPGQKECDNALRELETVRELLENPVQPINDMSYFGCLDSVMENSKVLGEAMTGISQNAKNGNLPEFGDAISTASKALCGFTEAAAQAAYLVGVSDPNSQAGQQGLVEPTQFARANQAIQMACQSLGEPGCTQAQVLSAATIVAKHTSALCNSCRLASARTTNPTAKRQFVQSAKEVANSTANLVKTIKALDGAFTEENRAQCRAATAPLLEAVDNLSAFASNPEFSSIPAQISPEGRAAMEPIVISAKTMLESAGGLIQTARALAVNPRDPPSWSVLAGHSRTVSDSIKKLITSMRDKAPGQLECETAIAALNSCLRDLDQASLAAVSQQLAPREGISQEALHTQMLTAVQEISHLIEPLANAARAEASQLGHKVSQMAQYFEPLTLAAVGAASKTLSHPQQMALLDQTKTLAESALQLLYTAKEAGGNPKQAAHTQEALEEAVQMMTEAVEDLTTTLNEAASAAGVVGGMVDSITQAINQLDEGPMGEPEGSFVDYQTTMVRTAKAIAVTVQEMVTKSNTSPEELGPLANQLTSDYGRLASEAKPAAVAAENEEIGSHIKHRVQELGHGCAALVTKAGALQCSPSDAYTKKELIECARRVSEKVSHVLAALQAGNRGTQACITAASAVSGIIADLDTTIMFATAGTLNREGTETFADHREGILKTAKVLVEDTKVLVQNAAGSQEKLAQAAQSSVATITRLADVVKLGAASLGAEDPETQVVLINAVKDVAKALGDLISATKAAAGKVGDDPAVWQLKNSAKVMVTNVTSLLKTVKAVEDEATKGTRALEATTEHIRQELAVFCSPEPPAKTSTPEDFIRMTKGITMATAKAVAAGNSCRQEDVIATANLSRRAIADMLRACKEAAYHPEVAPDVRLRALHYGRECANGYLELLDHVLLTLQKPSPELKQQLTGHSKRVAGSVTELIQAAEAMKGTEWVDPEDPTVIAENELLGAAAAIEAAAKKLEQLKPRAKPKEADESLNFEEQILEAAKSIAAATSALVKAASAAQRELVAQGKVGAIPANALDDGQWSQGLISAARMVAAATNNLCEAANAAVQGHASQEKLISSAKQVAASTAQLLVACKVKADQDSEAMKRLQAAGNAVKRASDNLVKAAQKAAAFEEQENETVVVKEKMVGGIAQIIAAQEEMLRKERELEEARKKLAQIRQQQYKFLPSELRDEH
UniProt Q9BVC6: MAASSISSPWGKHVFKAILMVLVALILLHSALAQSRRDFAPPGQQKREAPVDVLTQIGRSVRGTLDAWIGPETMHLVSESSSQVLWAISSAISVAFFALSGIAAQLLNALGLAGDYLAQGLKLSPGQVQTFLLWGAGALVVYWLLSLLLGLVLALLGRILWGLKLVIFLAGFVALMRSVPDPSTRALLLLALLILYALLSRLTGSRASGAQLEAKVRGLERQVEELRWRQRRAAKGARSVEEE
UniProt O94886: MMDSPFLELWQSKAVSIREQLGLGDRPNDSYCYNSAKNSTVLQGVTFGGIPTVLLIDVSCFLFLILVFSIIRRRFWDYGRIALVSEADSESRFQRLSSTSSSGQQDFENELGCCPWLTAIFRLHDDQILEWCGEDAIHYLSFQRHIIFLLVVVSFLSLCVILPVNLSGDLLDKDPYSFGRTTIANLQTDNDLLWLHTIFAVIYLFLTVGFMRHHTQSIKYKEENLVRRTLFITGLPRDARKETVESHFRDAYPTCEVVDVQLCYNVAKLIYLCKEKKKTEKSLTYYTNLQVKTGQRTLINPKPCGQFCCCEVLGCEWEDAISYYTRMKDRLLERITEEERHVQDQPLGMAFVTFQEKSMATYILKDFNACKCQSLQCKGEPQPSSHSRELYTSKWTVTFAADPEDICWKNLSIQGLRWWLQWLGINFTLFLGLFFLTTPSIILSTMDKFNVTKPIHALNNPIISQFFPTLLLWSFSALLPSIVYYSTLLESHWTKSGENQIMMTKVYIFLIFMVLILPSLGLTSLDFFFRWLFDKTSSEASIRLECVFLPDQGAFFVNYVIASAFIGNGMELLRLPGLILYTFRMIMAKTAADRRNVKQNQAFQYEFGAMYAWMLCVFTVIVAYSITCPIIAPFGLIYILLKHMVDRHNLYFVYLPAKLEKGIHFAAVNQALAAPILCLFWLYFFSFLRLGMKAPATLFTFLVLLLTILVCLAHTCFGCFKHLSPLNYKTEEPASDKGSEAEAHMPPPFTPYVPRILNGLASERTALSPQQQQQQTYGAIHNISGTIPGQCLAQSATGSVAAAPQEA
UniProt P55061, whole entry, looked up: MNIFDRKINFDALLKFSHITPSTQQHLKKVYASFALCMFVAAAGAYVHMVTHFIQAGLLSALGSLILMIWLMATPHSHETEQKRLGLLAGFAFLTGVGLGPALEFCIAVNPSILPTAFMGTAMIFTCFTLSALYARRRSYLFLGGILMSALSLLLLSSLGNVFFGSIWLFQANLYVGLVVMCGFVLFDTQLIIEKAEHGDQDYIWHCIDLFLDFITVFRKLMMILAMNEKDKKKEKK
UniProt Q12893: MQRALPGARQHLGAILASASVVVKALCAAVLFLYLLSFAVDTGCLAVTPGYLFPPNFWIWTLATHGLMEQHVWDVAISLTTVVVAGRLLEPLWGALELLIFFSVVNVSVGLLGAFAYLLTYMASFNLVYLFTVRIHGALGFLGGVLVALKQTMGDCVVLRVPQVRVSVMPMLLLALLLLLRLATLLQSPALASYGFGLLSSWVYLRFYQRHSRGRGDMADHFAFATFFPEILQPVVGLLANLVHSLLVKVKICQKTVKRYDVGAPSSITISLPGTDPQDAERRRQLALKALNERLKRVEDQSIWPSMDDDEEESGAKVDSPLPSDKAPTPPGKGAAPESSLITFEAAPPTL
UniProt Q9BVT8: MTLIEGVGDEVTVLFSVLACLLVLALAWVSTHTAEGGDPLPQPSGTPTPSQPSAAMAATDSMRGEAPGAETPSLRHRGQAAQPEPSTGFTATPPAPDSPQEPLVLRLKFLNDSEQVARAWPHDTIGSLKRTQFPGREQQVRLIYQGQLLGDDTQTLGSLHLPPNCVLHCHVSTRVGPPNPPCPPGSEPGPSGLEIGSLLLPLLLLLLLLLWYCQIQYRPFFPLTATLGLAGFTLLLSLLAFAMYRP
UniProt Q8IUX1: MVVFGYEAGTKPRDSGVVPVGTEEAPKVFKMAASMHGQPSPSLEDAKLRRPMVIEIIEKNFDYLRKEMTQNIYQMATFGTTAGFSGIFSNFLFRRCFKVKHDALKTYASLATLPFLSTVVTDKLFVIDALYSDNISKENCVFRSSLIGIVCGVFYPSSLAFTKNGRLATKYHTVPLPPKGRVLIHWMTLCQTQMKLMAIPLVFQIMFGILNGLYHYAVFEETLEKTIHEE
UniProt Q5SNT2: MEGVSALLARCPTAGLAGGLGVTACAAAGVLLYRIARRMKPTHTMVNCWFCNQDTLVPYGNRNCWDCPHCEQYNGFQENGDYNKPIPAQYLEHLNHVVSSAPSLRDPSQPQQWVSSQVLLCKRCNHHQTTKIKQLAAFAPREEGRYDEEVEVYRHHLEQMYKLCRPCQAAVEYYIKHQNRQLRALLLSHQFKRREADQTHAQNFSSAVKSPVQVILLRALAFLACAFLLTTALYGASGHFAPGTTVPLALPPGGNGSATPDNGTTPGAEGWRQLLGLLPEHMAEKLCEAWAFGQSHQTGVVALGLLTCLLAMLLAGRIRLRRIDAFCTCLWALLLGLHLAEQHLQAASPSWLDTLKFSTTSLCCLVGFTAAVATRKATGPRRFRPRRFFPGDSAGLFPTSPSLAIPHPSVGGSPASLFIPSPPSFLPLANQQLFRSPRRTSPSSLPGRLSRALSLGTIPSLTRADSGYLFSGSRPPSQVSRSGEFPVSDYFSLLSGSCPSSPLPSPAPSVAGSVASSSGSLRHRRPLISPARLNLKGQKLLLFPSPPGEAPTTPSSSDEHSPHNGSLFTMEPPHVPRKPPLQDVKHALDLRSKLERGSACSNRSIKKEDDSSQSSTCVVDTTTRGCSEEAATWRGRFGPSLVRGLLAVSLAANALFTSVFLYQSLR

Key:
Test in all cases: log2 fold change, soluble protein after heating vs DMSO (PISA); higher = thermal stabilisation; K562 cells, 10 uM, 30 min; active = over 0.2 and 3.5 SD of the protein, either way, in both replicates (recomputed)
[1] = compound: CN1CCN(CCOc2cc(OC3CCOCC3)c3c(Nc4c(Cl)ccc5c4OCO5)ncnc3c2)CC1 [saracatinib]
Summary of the method: (§1)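 K562 cells at 2×10^6 cells/mL were exposed to 10 μM compound for 30 min, then aliquots were heated for 3 min across 48°C-58°C, pooled, and extracted in PBS containing 0.5% NP-40 at 4°C. The supernatant after 21,000xg for 90 min was taken as soluble protein and measured by TMTpro 16plex LC-MS/MS with channel sums equalised. Thermal stability is reported relative to control samples, with values from duplicates. Fold changes are given on a log2 scale.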

[2] = compound: CN1CCN(c2nc(C3=C(c4c[nH]c5ccccc45)C(=O)NC3=O)c3ccccc3n2)CC1 [sotrastaurin]
Summary of the method: as §1

[3] = compound: CN1CC[C@H](c2c(O)cc(O)c3c(=O)cc(-c4ccccc4Cl)oc23)[C@H](O)C1 [alvocidib]
Summary of the method: as §1

[4] = compound: CN1CCc2c(c3ccccc3n2Cc2ccc(C(=O)NO)cc2)C1 [Tubastatin A]
Summary of the method: as §1

[5] = compound: CNC(=O)C1=CC=CC=C1NC2=NC(=NC=C2Cl)NC3=C(C=C(C=C3)N4CCOCC4)OC
Summary of the method: as §1

[6] = compound: CNC(=O)c1ccc(Nc2ncc(C(F)(F)F)c(NCc3nccnc3N(C)S(C)(=O)=O)n2)cc1 [defactinib]
Summary of the method: as §1

[7] = compound: CNCc1ccc(-c2[nH]c3cc(F)cc4c3c2CCNC4=O)cc1 [rucaparib]
Summary of the method: as §1

[8] = compound: CNc1nc(-c2ccc3c(N)n[nH]c3c2)cc(N2C[C@@H](C(=O)NC3CCCCC3)CC[C@H]2C)n1
Summary of the method: as §1

[9] = compound: COC(=O)N[C@@H](C)CNc1nccc(-c2cn(C(C)C)nc2-c2cc(Cl)cc(NS(C)(=O)=O)c2F)n1 [encorafenib]
Summary of the method: as §1

[10] = compound: COC(=O)[C@H](CCSC)NC(=O)C1=C(C=C(C=C1)NC[C@H](CS)N)C2=CC=CC=C2
Summary of the method: as §1

[11] = compound: COC1=CC=C(C=C1)CN2C=CC3=C2C=C(C=C3)C(=O)NO
Summary of the method: as §1

[12] = compound: CON(C)C(=O)N1N=C(c2cc(F)ccc2F)S[C@@]1(CCCN)c1ccccc1 [filanesib]
Summary of the method: as §1

[13] = compound: CO[C@H]1C[C@@H]2CC[C@@H](C)[C@@](O)(O2)C(=O)C(=O)N2CCCC[C@H]2C(=O)O[C@H]([C@H](C)C[C@@H]2CC[C@H](n3cnnn3)[C@H](OC)C2)CC(=O)[C@H](C)/C=C(\C)[C@@H](O)[C@@H](OC)C(=O)[C@H](C)C[C@H](C)/C=C/C=C/C=C/1C [zotarolimus]
Summary of the method: as §1

[14] = compound: COc1cc(C(=O)O)ccc1NC(=O)[C@@H]1N[C@@H](CC(C)(C)C)[C@](C#N)(c2ccc(Cl)cc2F)[C@H]1c1cccc(Cl)c1F [idasanutlin]
Summary of the method: as §1

[15] = compound: COc1cc(Nc2ncc3c(n2)-c2ccc(Cl)cc2C(c2c(F)cccc2OC)=NC3)ccc1C(=O)O [alisertib]
Summary of the method: as §1

[16] = compound: COc1cc2nc(-c3cc(F)ccc3O)nc(N[C@@H]3CNC[C@H]3C(C)(C)O)c2cc1OC
Summary of the method: as §1

[17] = compound: COc1cc2ncnc(Nc3ccc(F)c(Cl)c3)c2cc1OCCCN1CCOCC1 [gefitinib]
Summary of the method: as §1

[18] = compound: COc1cccc2cc(-c3nc([C@H]4CC[C@H](C(=O)O)CC4)n4ncnc(N)c34)[nH]c12
Summary of the method: as §1

[19] = compound: CS(=O)(=O)CCNCc1ccc(-c2ccc3ncnc(Nc4ccc(OCc5cccc(F)c5)c(Cl)c4)c3c2)o1 [lapatinib]
Summary of the method: as §1

[20] = compound: CS(=O)(=O)N1CCN(Cc2cc3nc(-c4cccc5[nH]ncc45)nc(N4CCOCC4)c3s2)CC1 [pictilisib]
Summary of the method: as §1

Target	log2 fold change [1]	log2 fold change [2]	log2 fold change [3]	log2 fold change [4]	log2 fold change [5]	log2 fold change [6]	log2 fold change [7]	log2 fold change [8]	log2 fold change [9]	log2 fold change [10]	log2 fold change [11]	log2 fold change [12]	log2 fold change [13]	log2 fold change [14]	log2 fold change [15]	log2 fold change [16]	log2 fold change [17]	log2 fold change [18]	log2 fold change [19]	log2 fold change [20]
TMEM33 (UniProt P57088)	inactive: 0.057	inactive: -0.001	inactive: -0.046	inactive: -0.072	inactive: 0.021	inactive: -0.041	inactive: -0.006	inactive: -0.005	inactive: 0.03	inactive: 0.005	inactive: -0.015	inactive: -0.097	inactive: 0.037	inactive: -0.077	inactive: -0.046	inactive: -0.146	inactive: 0.012	inactive: 0.049	inactive: 0.032	inactive: -0.004
TMEM126A (UniProt Q9H061)	inactive: -0.003	inactive: 0.054	inactive: 0.003	inactive: -0.006	inactive: -0.015	inactive: 0	inactive: -0.008	inactive: -0.077	inactive: -0.042	inactive: 0.023	inactive: 0.015	inactive: -0.055	inactive: 0	inactive: -0.022	inactive: -0.06	inactive: -0.065	inactive: 0.034	inactive: 0.047	inactive: 0.031	inactive: 0.147
TNFRSF10B (UniProt O14763)	inactive: -0.106	inactive: 0.019	inactive: -0.069	inactive: 0.06	inactive: -0.029	inactive: 0.026	inactive: -0.099	inactive: -0.014	inactive: 0.026	inactive: 0.026	inactive: -0.054	inactive: 0.099	inactive: -0.005	inactive: 0.033	inactive: -0.219	inactive: 0.046	inactive: 0.044	inactive: 0.049	inactive: -0.02	inactive: 0.101
TMX1 (UniProt Q9H3N1)	inactive: -0.018	inactive: 0.012	inactive: -0.008	inactive: -0.023	inactive: -0.001	inactive: 0.016	inactive: -0.017	inactive: -0.014	inactive: 0.007	inactive: 0.023	inactive: -0.034	inactive: -0.025	inactive: 0.001	inactive: -0.005	inactive: -0.079	inactive: 0.041	inactive: 0.038	inactive: 0.016	inactive: -0.013	inactive: 0.017
TMSB10 (UniProt P63313)	inactive: -0.058	inactive: 0.206	inactive: -0.069	inactive: 0.013	inactive: -0.028	inactive: -0.104	inactive: 0.194	inactive: -0.038	inactive: -0.154	inactive: 0.13	inactive: 0.005	inactive: 0.091	inactive: 0.112	inactive: -0.083	inactive: -0.027	inactive: -0.049	inactive: 0.019	inactive: 0.023	inactive: -0.17	inactive: 0.125
TLN1 (UniProt Q9Y490)	inactive: 0.003	inactive: -0.056	inactive: -0.058	inactive: 0.007	inactive: 0.063	inactive: -0.061	inactive: -0.011	inactive: 0.021	inactive: 0.057	inactive: -0.036	inactive: 0.109	inactive: -0.013	inactive: 0.026	inactive: -0.07	inactive: -0.06	inactive: 0.031	inactive: 0.014	inactive: -0.049	inactive: -0.011	inactive: 0.002
TMEM109 (UniProt Q9BVC6)	inactive: -0.033	inactive: -0.004	inactive: 0.042	inactive: -0.055	inactive: 0	inactive: 0.008	inactive: 0.028	inactive: 0.014	inactive: -0.085	inactive: 0.038	inactive: 0.009	inactive: -0.094	inactive: -0.046	inactive: 0.021	inactive: -0.036	inactive: 0.009	inactive: 0.013	inactive: 0.046	inactive: -0.088	inactive: 0.049
TMEM63A (UniProt O94886)	inactive: 0.029	inactive: 0.004	inactive: 0.016	inactive: 0.017	inactive: 0.088	inactive: -0.018	inactive: 0.073	inactive: 0.019	inactive: -0.041	inactive: 0.049	inactive: -0.003	inactive: 0.003	inactive: 0.047	inactive: -0.029	inactive: -0.106	inactive: 0.09	inactive: 0.057	inactive: 0	inactive: 0.056	inactive: 0.114
TM9SF3 (UniProt Q9HD45)	inactive: 0.062	inactive: 0.082	inactive: -0.107	inactive: -0.049	inactive: 0.052	inactive: -0.021	inactive: 0.012	inactive: 0.044	inactive: -0.006	inactive: 0.026	inactive: -0.025	inactive: 0.018	inactive: 0.019	inactive: 0.057	inactive: -0.06	inactive: 0.133	inactive: 0.107	inactive: 0.034	inactive: 0.008	inactive: 0.092
TMBIM6 isoform 2 (UniProt P55061)	inactive: 0.08	inactive: -0.029		inactive: 0.062	inactive: -0.004	inactive: -0.007	inactive: -0.065	inactive: -0.006	inactive: -0.005	inactive: 0.039	inactive: -0.007	inactive: -0.233	inactive: -0.099	active: -0.51	inactive: -0.27	active: -0.535	inactive: -0.087	inactive: -0.165	inactive: -0.196	
TMEM115 (UniProt Q12893)	inactive: 0.025	inactive: 0.059	inactive: 0.034	inactive: -0.025	inactive: -0.028	inactive: -0.063	inactive: -0.026	inactive: 0.022	inactive: -0.056	inactive: 0.038	inactive: -0.074	inactive: -0.064	inactive: -0.029	inactive: -0.114	inactive: 0.051	inactive: -0.001	inactive: 0.022	inactive: 0.056	inactive: 0.001	inactive: 0.036
TNFRSF1A (UniProt P19438)	inactive: -0.22	inactive: 0.024	inactive: 0.077	inactive: 0.264	inactive: -0.123			inactive: 0.006				inactive: 0.19	inactive: 0.056			inactive: 0.004			inactive: -0.088	inactive: 0.189
TMUB1 (UniProt Q9BVT8)	inactive: -0.138	inactive: 0.005	inactive: -0.01	inactive: 0.04	inactive: -0.063	inactive: -0.02	inactive: 0.022	inactive: -0.087	inactive: -0.105	inactive: 0.108		inactive: 0.11	inactive: 0.01	inactive: 0.06	inactive: -0.147	inactive: 0.052	inactive: 0.121	inactive: -0.02	inactive: -0.133	inactive: 0.015
TMEM230 isoform 2 (UniProt Q96A57)	inactive: 0.128	inactive: 0.048	inactive: -0.056	inactive: 0.001	inactive: -0.057	inactive: 0.115	inactive: 0.133	inactive: -0.046	inactive: -0.055	inactive: 0.023	inactive: 0.037	inactive: -0.036	inactive: 0.06	inactive: 0.027	inactive: -0.091	inactive: -0.003	inactive: -0.001	inactive: -0.029	inactive: -0.057	inactive: -0.021
TLN2 (UniProt Q9Y4G6)	inactive: -0.011	inactive: -0.056	inactive: -0.07	inactive: 0.08	inactive: 0.045	inactive: -0.02	inactive: 0.148	inactive: 0.078	inactive: 0.128	inactive: -0.052	inactive: 0.024	inactive: 0.035	inactive: 0.052	inactive: -0.01	inactive: 0.234	inactive: -0.018	inactive: -0.053	inactive: -0.139	inactive: 0.065	inactive: -0.056
TMEM126B (UniProt Q8IUX1)	inactive: 0.053	inactive: 0.042	inactive: -0.033	inactive: -0.115	inactive: 0.024	inactive: -0.053	inactive: -0.138	inactive: -0.075	inactive: 0.194	inactive: -0.028	inactive: -0.023	inactive: -0.114	inactive: -0.041	inactive: -0.013	inactive: -0.238		inactive: 0.083	inactive: 0.211		inactive: 0.02
TMEM201 (UniProt Q5SNT2)	inactive: 0.002	inactive: 0.051	inactive: 0.075	inactive: 0.009	inactive: -0.027			inactive: -0.026				inactive: -0.09	inactive: -0.067		inactive: -0.004		inactive: 0.088	inactive: 0.058		inactive: 0.128

Just log2 fold change [20], for some of the entries so far:
Target	log2 fold change [20]
TNFRSF1A (UniProt P19438)	inactive: 0.189
TMEM126B (UniProt Q8IUX1)	inactive: 0.02
